From paper doi:10.1101/2025.02.28.640611
Results are given in words; binding and its absence hold for the method and conditions named. Binding seen in cells or lysates may run through a third protein. Some results given as binding are weak or reduced against the parent protein; the word gives no strength.

Sequences of proteins named here, by UniProt entry; tags and fusion partners are left off.
UniProt Q8DST7: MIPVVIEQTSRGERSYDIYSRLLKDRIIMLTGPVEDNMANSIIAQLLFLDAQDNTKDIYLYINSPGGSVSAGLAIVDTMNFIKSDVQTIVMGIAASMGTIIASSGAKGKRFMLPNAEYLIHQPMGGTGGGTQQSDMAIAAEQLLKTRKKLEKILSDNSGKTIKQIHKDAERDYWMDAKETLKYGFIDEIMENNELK
UniProt Q8DUI0: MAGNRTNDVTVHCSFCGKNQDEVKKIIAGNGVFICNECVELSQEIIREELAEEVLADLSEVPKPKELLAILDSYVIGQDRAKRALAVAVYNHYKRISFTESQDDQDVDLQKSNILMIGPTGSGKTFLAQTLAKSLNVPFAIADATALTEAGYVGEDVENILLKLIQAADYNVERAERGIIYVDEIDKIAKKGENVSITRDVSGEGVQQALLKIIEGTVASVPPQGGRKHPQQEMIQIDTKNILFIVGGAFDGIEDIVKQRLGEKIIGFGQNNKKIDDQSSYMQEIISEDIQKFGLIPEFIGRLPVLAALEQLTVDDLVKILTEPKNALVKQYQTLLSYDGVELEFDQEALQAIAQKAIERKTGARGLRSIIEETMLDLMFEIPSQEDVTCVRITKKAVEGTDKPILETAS

Target: ClpP fused to an N-terminal fragment of GFP (split GFP) (S. mutans) (UniProt Q8DST7)
Test: split reporter

Substance: ClpX fused to a C-terminal fragment of GFP (split GFP) (from UniProt Q8DUI0 1-410) (enzyme)
- binding: binds
